{"source": "PubChem BioAssay AID1508600", "about": "(Functional Genomics Laboratory (NCATS/FGL), 2020)", "note": "Hit rate of the full screen: of about 53,000 sequences, about 3,700 (7%) were called active.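 The calls were made as follows: active = gene knockdowns whose robust z-score for IL-1 alpha signal is at least 2 or at most -2, so actives lie on both sides; inactive = the rest.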 This is one part of the list.", "data": [{"test": "Components of the Cytosolic LPS Sensing Pathway: Gene Identification via Genome-wide siRNA Screen;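 also: robust z of the log signal after scaling to non-targeting control siRNA wells of the plate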", "conditions": "RAW264.7 macrophages, IL-1a HTRF, actives lie on both sides, screened at 100 nM (by protocol), cells primed 5 h with Pam3CSK4 first", "method_in_brief": "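Knockdown: 100 nM siRNA, 48h, RAW264.7. Stimulation: Pam3CSK4 5 h, then LipidA via TransIT-TKO 24 h. Output: supernatant IL-1a HTRF, negative-control-normalized, log robust z-score; viability by CellTiter-Glo.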", "values": [{"sequence": "CCUCCCAAGUAAAUUAUUATT against Slc16a12", "z-score": "inactive: 1.99"}, {"sequence": "GCAAGUCCGGAUGUAAGGATT against Ccdc42", "z-score": "inactive: -0.0917"}, {"sequence": "GGUUUGUAGAGGCAUCAAGTT against Snph", "z-score": "inactive: -0.13"}, {"sequence": "GGUAUCAGAGACAACCAAATT against Chad", "z-score": "inactive: 0.0541"}, {"sequence": "CGCCUAAGAAUAUGAAAAATT against Nek3", "z-score": "inactive: -0.2"}, {"sequence": "GCAACCUAUGUCUGCAACUTT against Spink7", "z-score": "inactive: -1.11"}, {"sequence": "GGAAGUAUCUGGAAAGGGATT against Usp2", "z-score": "inactive: 0.56"}, {"sequence": "GCUGGACAUAUGGUCCAAATT against Med27", "z-score": "inactive: 0.527"}, {"sequence": "GGAAACGAUGAAGAACAAATT against 4933427D06Rik", "z-score": "inactive: -0.714"}, {"sequence": "GGAGAGAAAAACACCUAUGTT against Prlr", "z-score": "inactive: 0.191"}, {"sequence": "GGUCUCAGGCUCAACUCAATT against Gm6116", "z-score": "inactive: 0.856"}, {"sequence": "CCCUGUUUAACUAUUACAATT against Tmc2", "z-score": "inactive: -1.05"}, {"sequence": "GGCAGGUUUUUGACAACUUTT against Fxyd4", "z-score": "active: 3.2"}, {"sequence": "GGUGUCUUUACGUCUCCCATT against Neto1", "z-score": "active: -2.56"}, {"sequence": "GCAAAUGCUGUCAGUGGGATT against Cd59b", "z-score": "inactive: -1.69"}, {"sequence": "CGAGGACAAAAAUACCGACTT against Supt6", "z-score": "inactive: -1.51"}, {"sequence": "GCGCAAAGGGUUUGUUAAGTT against Mogat1", "z-score": "inactive: -0.203"}, {"sequence": "GGUACAAAUCGAUUGUCAATT against Fdps", "z-score": "inactive: 0.288"}, {"sequence": "GGAAAAGAAGUGACCUGCUTT against Anapc4", "z-score": "inactive: 0.228"}, {"sequence": "GCGAGAAGCUUUAGAACGATT against Ubxn1", "z-score": "inactive: 0.255"}, {"sequence": "GGAGUCAAGUACGAUGUGATT against C8b", "z-score": "inactive: -0.0383"}, {"sequence": "GGUACAGAGCAAUAAGCAUTT against Mbd6", "z-score": "inactive: -0.0683"}, {"sequence": "GCUGGUAUGGAUUGUUUCGTT against Ccng2", "z-score": "inactive: 0.619"}, {"sequence": "GGCUGAUUAUCACAGCAAGTT against Ablim2", "z-score": "inactive: 0.0677"}, {"sequence": "GGAGUCGAAUCUUCUCUAATT against Taco1", "z-score": "inactive: -1.07"}, {"sequence": "GGUGGACAUGAGCAAAGUATT against Srrm1", "z-score": "inactive: 1.54"}, {"sequence": "CAAACCUUGUUGCCAUGACTT against Olfr406", "z-score": "inactive: 0.0688"}, {"sequence": "GCGGAAGUCGGAUUUUAUCTT against Kif1c", "z-score": "active: 3.01"}, {"sequence": "GGUGAAAUAUGUUAUCUGGTT against Copa", "z-score": "inactive: 0.467"}, {"sequence": "GGUCCUUUCCCAUAACCUGTT against Swap70", "z-score": "inactive: -0.922"}, {"sequence": "GCUCCAAAUUAAAUUUUGCTT against Irf9", "z-score": "inactive: 0.768"}, {"sequence": "GCUACUAUCUGGAGUCGUATT against Pycard", "z-score": "inactive: -0.51"}, {"sequence": "GGCUUAAGUGUGCAGCUACTT against B3gnt4", "z-score": "inactive: -0.479"}, {"sequence": "CGCAUACUGUAAAAACUUCTT against Fastkd3", "z-score": "inactive: -1.08"}, {"sequence": "GGAGAAGUCCAAAUUCGAGTT against Raly", "z-score": "inactive: -0.277"}, {"sequence": "GGCCGUCGGAAAAAGGAUGTT against Abcf1", "z-score": "inactive: -0.378"}, {"sequence": "CCUAUGUUUUAGCAAGCAGTT against Acyp2", "z-score": "inactive: 0.758"}, {"sequence": "GAGACUAAUAUAGUGAAUGTT against Foxj1", "z-score": "inactive: -0.314"}, {"sequence": "GGUGUACCUCUGAAAAAAATT against Zbp1", "z-score": "inactive: -1.5"}, {"sequence": "GGAGUUUGUGUUUUAUCUATT against Ppp1r3b", "z-score": "inactive: -0.175"}, {"sequence": "GGUGUGGGAUUUCUACACUTT against Sbf1", "z-score": "inactive: 0.0854"}, {"sequence": "GGUGGUGGAACAAGAUGAGTT against Psen1", "z-score": "inactive: -1.05"}, {"sequence": "GAGAAUGACGGACAAGUGUTT against Timm13", "z-score": "inactive: 1.09"}, {"sequence": "GGGAACAUGUAAACUAACGTT against Klf3", "z-score": "inactive: 0.701"}, {"sequence": "GCCUCCCGGAAAUAUAGGUTT against Sipa1l3", "z-score": "inactive: 0.429"}, {"sequence": "GGUUCUUUUUGGUGUUAUGTT against Psme3", "z-score": "inactive: -0.759"}, {"sequence": "GGUAUUUUUUUCUCAGCCATT against Dhdh", "z-score": "inactive: -0.937"}, {"sequence": "GCCUUUAUCUACCGCCCAGTT against Fam120b", "z-score": "inactive: -0.265"}, {"sequence": "GCACCUAACUCUAGUUUUGTT against Golga7", "z-score": "inactive: 1.22"}, {"sequence": "GGUUGACCCUGGAAUCUCUTT against Hhatl", "z-score": "inactive: -1.3"}, {"sequence": "CCCUACAUGGAUGAGAACUTT against Trnau1ap", "z-score": "inactive: -0.759"}, {"sequence": "GCUCAUAGAGCAAAUACGUTT against Sall1", "z-score": "inactive: -0.932"}, {"sequence": "GUUGUAUUUCUUUGCCUUCTT against Olfr1098", "z-score": "inactive: 1.76"}, {"sequence": "GGGAUCCUGGAAAUUGUAATT against Esco1", "z-score": "inactive: -1.36"}, {"sequence": "CCAAGAAAUGUAUGCCAUUTT against Slc26a2", "z-score": "inactive: 1.02"}, {"sequence": "GGAUGGAAAACUCAUCAUCTT against Gnb1", "z-score": "inactive: 1.07"}, {"sequence": "GCCUGAUUAGCAAGUGAUGTT against Evx1", "z-score": "inactive: -1.54"}, {"sequence": "GGAAGUAGAGACAGGAGGATT against Vamp5", "z-score": "inactive: 0.996"}, {"sequence": "GGGUGCUAAUCUGAAAGGUTT against Kctd9", "z-score": "inactive: -1.43"}, {"sequence": "GCACUAUCCACAUGCACAUTT against Olfr1281", "z-score": "inactive: 0.469"}, {"sequence": "CCCUCUAUCCUUAAACCAUTT against Erg28", "z-score": "inactive: -0.549"}, {"sequence": "CCAAGUGUUACCUCACUACTT against Cables2", "z-score": "inactive: -0.0931"}, {"sequence": "GGGCUGUCUCAAUGAGAUGTT against Irgc1", "z-score": "inactive: -0.752"}, {"sequence": "GGAUUUGAACUCAGAUGUUTT against A430057M04Rik", "z-score": "active: 2.15"}, {"sequence": "GGCUCAUAUUUGCUACUGUTT against Gprc5d", "z-score": "inactive: 0.481"}, {"sequence": "GGAGAAAGCAAAAACUAUATT against Ube2z", "z-score": "inactive: -0.387"}, {"sequence": "GGAGAAAGAAUCUGAAAAUTT against Kctd19", "z-score": "inactive: -0.296"}, {"sequence": "GGAUAUUCAUAGUAACACATT against Nmd3", "z-score": "inactive: 0.697"}, {"sequence": "GGGCCACAGUUUCAGCUUCTT against H6pd", "z-score": "inactive: 0.882"}, {"sequence": "CCCAGAGGUAAAGAAGGUCTT against Tex29", "z-score": "inactive: -1.81"}, {"sequence": "GGAGCCAGAACCUGAAAUUTT against Ankrd1", "z-score": "active: 2.86"}, {"sequence": "CGAAACAUCCCUAUGCUCUTT against Lsm3", "z-score": "inactive: -0.641"}, {"sequence": "GGAAGUCACAAAUAAUUUGTT against Caprin1", "z-score": "inactive: 1.67"}, {"sequence": "GGCUGUGGAUUUCUCUCUGTT against Kng1", "z-score": "inactive: -0.334"}, {"sequence": "GGAUGAAUAAGGACAGAUUTT against Phospho2", "z-score": "inactive: 0.335"}, {"sequence": "GGGAAUUAAACAAUAUUGCTT against Cd163", "z-score": "inactive: 0.545"}, {"sequence": "GGAAGUGAACCAGUUGAGATT against Pcdh7", "z-score": "inactive: 0.496"}, {"sequence": "GCACCUGGGCCUUUGAAUATT against Hes2", "z-score": "inactive: -0.754"}, {"sequence": "CGUGAUGUACAUGCAGGAUTT against Slc48a1", "z-score": "active: 2.83"}, {"sequence": "GGUUACCCUUGAGAAGAACTT against Narf", "z-score": "inactive: 0.518"}, {"sequence": "GGAAGUUCUUCCUAAGUACTT against Hsf2", "z-score": "inactive: -1.41"}, {"sequence": "GGAUGAGAAUAGUGCUAAATT against Arhgap26", "z-score": "inactive: 1.39"}, {"sequence": "GGUGAAUUUUCAGUUGAUATT against Serbp1", "z-score": "inactive: -0.65"}, {"sequence": "GGUAUUCCUUUUUUGUAGCTT against Mboat1", "z-score": "inactive: 0.177"}, {"sequence": "CCAAAUACUGUUCAAGAUGTT against Lypla1", "z-score": "inactive: -0.463"}, {"sequence": "GGACCAGAAUGCAACUCUUTT against Pex5", "z-score": "inactive: -0.403"}, {"sequence": "CGCAUCCUAAGAAAUGACATT against Blvrb", "z-score": "inactive: 0.321"}, {"sequence": "GCUCAUUUGUUUCCAAUAATT against Maf1", "z-score": "inactive: -0.713"}, {"sequence": "GGAGUCCACUAAAGUCCUATT against Fmnl3", "z-score": "inactive: 0.409"}, {"sequence": "GUACACUCAGGCUGAGGGUTT against Acyp1", "z-score": "inactive: 0.0397"}, {"sequence": "GCGCGCUAAAAUGGAUGGCTT against Kng2", "z-score": "inactive: -0.19"}, {"sequence": "GGCCAUCAGAUAAAAGUUGTT against Sgsm1", "z-score": "inactive: -0.383"}, {"sequence": "GCGAAAGACGAUCAAAACCTT against Scn1a", "z-score": "inactive: 0.841"}, {"sequence": "CGGAGUUGGAUGUUAUUCUTT against Cenpu", "z-score": "inactive: 0.0358"}, {"sequence": "GGAAAUAUUACCUUUGUACTT against Sp3", "z-score": "inactive: -0.762"}, {"sequence": "GGUCAUGAACUUCACAAUUTT against Sgcd", "z-score": "inactive: 0.513"}, {"sequence": "GCUAUAUAAAGGCUGAGUATT against Emilin3", "z-score": "inactive: -0.128"}, {"sequence": "CCUUAUCUAUAACUCUGCUTT against Tirap", "z-score": "inactive: -0.772"}, {"sequence": "GCCGCUAGCAUGGUCUAUUTT against Apoa5", "z-score": "active: 2.51"}, {"sequence": "CCACAGGGACAACAAACUATT against Arid3b", "z-score": "inactive: 0.0513"}, {"sequence": "GCUGGUAUUUAAUAGAGGATT against Nkap", "z-score": "inactive: 0.535"}, {"sequence": "CGUGAAGAUGACCGAUGAUTT against Rpl10a", "z-score": "inactive: -0.347"}, {"sequence": "CGGGCUCACAGUUUCUACUTT against Ethe1", "z-score": "inactive: -0.648"}, {"sequence": "CGCGAUCAUAGAUUGGGCUTT against Sec61b", "z-score": "inactive: -0.624"}, {"sequence": "CGCAUUACUAUCACCAAAGTT against Samd4", "z-score": "inactive: -0.482"}, {"sequence": "GGAACAAAGAUGUGUCUGGTT against Olfr31", "z-score": "inactive: 0.0504"}, {"sequence": "UGUGGUGAACCCAAUGCACTT against Klk1b22", "z-score": "active: -3.28"}]}]}
